Data on 67 compounds can be found in PubChem BioAssay AID662 (National Center for Advancing Translational Sciences (NCATS), 2007).

The list shows a part of the results. Shown are side measurements of this screen, not its main read-out; they come without a call. The list favours compounds with an active or inconclusive main result. Words in brackets tell the shape of the fitted curve; partial curves, single points and poor fits give uncertain potencies.

The nature of this assay: Cell signaling CRE-BLA (Fsk stim). Conditions: CHO CRE-bla reporter (cAMP response element driving beta-lactamase), forskolin EC10, beta-lactamase ratio; measured here: 460 nm blue channel. In short, it runs like this: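 Reporter-gene assay: CHO cells with beta-lactamase behind cAMP responsive elements, co-treated with compound and EC10 NKH 477 for 3 hours at 37 degrees Celsius. Activity came from the 460/530 nm CCF4 emission ratio.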
Consider `COc1ccc(N(CC(=O)NCCSc2ccccn2)S(C)(=O)=O)cc1Cl`, for which the AC50 is 12.6 µM [rising, partial curve].

Consider `CCCOc1ccc([C@@H]2C3CN(C(=O)OCC)CC=C3C(C#N)=C(N)C2(C#N)C#N)cc1OC` (some centres not stated), for which the AC50 was 12.6 µM [rising, partial curve].

With `COc1ccccc1CCn1c(=O)c(-c2cn(C)c3ccccc23)nc2cncnc21`, the AC50 is 0.398 µM [rising, full curve].

Consider `CCn1c(SCC(=O)Nc2cccc(C)c2)nc2c(c1=O)SC(C)C2` (configuration not stated), for which the AC50 was 10 µM [rising, single point].

For `COc1ccc(OC)c(-c2cc(C(=O)NCc3cccs3)no2)c1`, the AC50 was 3.16 µM [rising, full curve].

With `CC1(C)Cc2ccccc2-c2nnc(SCC(=O)Nc3nc4ccccc4s3)n21`, the AC50 was 3.98 µM [rising, partial curve].

Regarding `Cc1ccc(C2c3sc(=O)[nH]c3SC3C(=O)NC(=O)C32)cc1` (configuration not stated), the AC50 was 1.58 µM [falling, full curve].

Take `CCN(C)c1ccc(/C=N\n2nnnc2N)cc1`: the AC50 is 12.6 µM [rising, partial curve].

Regarding `CCOC(=O)N1CCC(NC(=O)Cc2cn(C)c3ccccc23)CC1`, the AC50 was 0.631 µM [falling, full curve].

On to `CCOC(=O)C1Cc2c([nH]c3ccccc23)CN1` (configuration not stated), for which the AC50 is 10 µM [falling, partial curve].

With `CCOC(=O)c1c(NC(=O)c2ccc(-n3cnnn3)cc2)sc2c1CCCC2`, the AC50 is 2.51 µM [rising, single point].

Regarding `CSc1nc2nc(C)cc(-c3ccccc3)n2n1`, the AC50 was 25.1 µM [rising, partial curve].

Turning to `CC(C)(C)n1nc2c(c1NC(=O)COc1ccc(Cl)cc1)CSC2`, the AC50 was 2.51 µM [falling, full curve, poor fit].

`CCCCOc1ccc(C(=O)NCc2ccco2)cc1`: the AC50 is 0.316 µM [falling, partial curve].

`CCOC(=O)C1CCCN(C(=O)C2CC(=O)N(c3ccc(C)cc3)C2)C1` (configuration not stated): the AC50 was 20 µM [falling, single point].

Regarding `CN(CC(=O)N1CC=C(c2ccccc2)CC1)S(=O)(=O)c1cnc[nH]1`, the AC50 was 0.0631 µM [falling, partial curve].

Regarding `COc1cccc(NC(=O)CSc2ccc3nnc(-c4ccncc4)n3n2)c1`, the AC50 is 12.6 µM [rising, partial curve].

For `CCC1SC2=NCCN2C1(O)c1ccc(Cl)cc1` (configuration not stated), the AC50 is 31.6 µM [falling, partial curve, poor fit].

In the case of `COc1ccc(NC(=O)c2sc(SC)nc2N)cc1`, the AC50 is 10 µM [rising, partial curve].

Consider `Brc1ccc(-c2nn3c(-c4ccccn4)nnc3s2)o1`, for which the AC50 is 10 µM [rising, single point].

For the compound `CCCc1cc2c(n1CCc1ccc(Cl)cc1)C(C)C1CN(C(=O)c3ccccc3)C(C)(C(=O)OC)C21` (configuration not stated), the AC50 was 5.01 µM [rising, partial curve].

As for `CCCCn1c(SCC(=O)c2cc(OC)ccc2OC)nc2cc(S(N)(=O)=O)ccc21`, the AC50 was 10 µM [rising, single point].

Take `COC(=O)c1ccccc1NC(=O)CSc1ccccc1`: the AC50 is 0.00316 µM [falling, full curve, poor fit].

With `COc1ccccc1CNC(=O)c1cc2c(=O)n(C)c3ccccc3c2n1C`, the AC50 is 3.16 µM [rising, single point].

`CNC(=O)c1cc2ccc(OC)cc2oc1=O`: the AC50 is 12.6 µM [rising, single point].

As for `COc1cccc(C(=O)Nc2ccc3nc(N4CCOCC4)cc(C)c3c2)c1`, the AC50 was 10 µM [rising, single point].

For the compound `CCOC(=O)CN1C(=O)C(C)(C)Oc2ccc(C(=O)Nc3ccccc3OC)cc21`, the AC50 was 0.0316 µM [rising, full curve, poor fit].

As for `CC1=C(C(=O)OC(C)C)C(C2CC=CCC2)NC(=O)N1` (configuration not stated), the AC50 was 0.00398 µM [falling, full curve, poor fit].

With `CCOC(=O)c1ccc2ncc(C(=O)OCC)c(NCCCN3CCOCC3)c2c1`, the AC50 is 10 µM [rising, partial curve].

With `CN(C)c1ncc2nc(-c3cccs3)c(=O)n(C[C@H]3CCCO3)c2n1`, the AC50 was 2 µM [rising, partial curve].

As to `CCn1cc(C(=O)NCc2ccc(OC)cc2OC)c(=O)c2ccc(C)nc21`, the AC50 was 1.58 µM [rising, full curve, poor fit].

Turning to `COc1cccc(Cn2c(=O)c(CCc3ccccc3)nc3cnc(OC)nc32)c1`, the AC50 is 10 µM [rising, partial curve].

As for `COc1ccccc1CNc1cc(-c2ccccc2Cl)ncn1`, the AC50 was 10 µM [rising, single point].

On to `CCCCCNC(=O)c1ccc2c(=O)n(CC3CCCO3)c(=O)[nH]c2c1` (configuration not stated), for which the AC50 was 0.794 µM [rising, partial curve].

With `C=CCn1c(N)c(C(=O)OCC(C)C)c2nc3ccccc3nc21`, the AC50 is 10 µM [rising, partial curve].

For the compound `COCCCNC(=O)CCCn1c(=O)[nH]c2ccccc2c1=O`, the AC50 is 25.1 µM [falling, single point].

Take `CC(=O)COc1ccc2c3c(c(=O)oc2c1C)CCCCC3`: the AC50 is 1 µM [rising, partial curve].

Regarding `CCCn1c(=O)c2c(ncn2C)n(CCC)c1=O`, the AC50 was 15.8 µM [rising, partial curve].

With `Cc1c(C(=O)OCc2ccccc2)[nH]c2c1C(=O)CC(c1ccco1)C2` (configuration not stated), the AC50 is 0.794 µM [rising, full curve].

For `COc1ccc(OC)c(C2CC(=O)C3=C(C2)NC(=O)CC3c2ccc(O)c(OC)c2)c1` (configuration not stated), the concentration at half-maximal activity (AC50) was 25.1 µM [rising, single point].

For the compound `c1ccc(N2CCOCC2)c(Nc2nc3ccccc3n3cnnc23)c1`, the AC50 is 5.01 µM [rising, partial curve].

On to `CN1CCN(c2nc(NCCOC34CC5CC(CC(C5)C3)C4)nc(OCC(F)(F)F)n2)CC1`, for which the AC50 was 10 µM [rising, partial curve].

Regarding `COc1cc(O)c2c(=O)cc(-c3ccccc3)oc2c1`, the AC50 is 25.1 µM [falling, partial curve, poor fit].

On to `CC(C)[C@H](NC(=O)Nc1ccc2c(c1)OCCO2)C(=O)O`, for which the AC50 is 2.51 µM [falling, partial curve].

As for `COc1cccc(Cn2c(=O)c(-c3ccc(F)cc3)nc3cnc(N4CCNCC4)nc32)c1`, the AC50 was 1.58 µM [rising, full curve].

On to `CCOc1cccc(NC(=O)C2CC(=O)N(C)C(=Nc3ccccc3)S2)c1` (configuration not stated), for which the AC50 is 25.1 µM [rising, single point].

Take `O=C(NCCN1CCc2ccccc2C1)C1CCN(S(=O)(=O)N2CCC3(CC2)OCCO3)CC1`: the AC50 was 1 µM [falling, single point].

`CN1CCN(c2nc3cc(C(F)(F)F)ccc3n3cccc23)CC1`: the AC50 is 25.1 µM [rising, partial curve].

Turning to `COc1ccc(-c2nn(C)c3sc(C(=O)NCc4ccco4)cc23)cc1OC`, the AC50 was 3.16 µM [rising, single point].

Turning to `Nc1c(S(=O)(=O)c2cccc(Cl)c2)c2nc3ccccc3nc2n1/N=C/c1ccc(O)c(O)c1`, the AC50 was 12.6 µM [falling, partial curve].

Take `Cc1cccc2cc3c(N)c(C#N)sc3nc12`: the AC50 was 12.6 µM [rising, partial curve].

For `Cc1cc(C)c2nc(N3CCCN(C(=O)c4ccco4)CC3)c(C#N)cc2c1`, the AC50 is 10 µM [rising, partial curve].

Regarding `COc1cccc(-c2cc(NCCc3c[nH]c4ccc(OC)cc34)ncn2)c1`, the AC50 is 5.01 µM [rising, partial curve].

Regarding `COc1ccc(CC(=O)Nc2nccs2)cc1OC`, the AC50 is 12.6 µM [rising, single point].

`c1ccc(-n2nnc3ccccc32)nc1`: the AC50 was 0.01 µM [falling, full curve, poor fit].

`Cc1nn(C)c(C)c1CNC(=O)c1nn2c(c1Cl)NC(c1cccs1)CC2C(F)(F)F` (configuration not stated): the AC50 is 2 µM [falling, partial curve, poor fit].

For `CC(=O)N1CCC2(CC1)C(C#N)=C(N)Oc1c2sc2nc(C)cc(C)c12`, the AC50 is 2.51 µM [rising, full curve, poor fit].

Regarding `CCCCCCOC(=O)C(C#N)c1nc2ccccc2nc1N1CCN(CC)CC1` (configuration not stated), the AC50 is 25.1 µM [rising, single point].

For `O=S(=O)(NCCNC/C=C\c1ccc(Br)cc1)c1cccc2cnccc12`, the AC50 was 15.8 µM [falling, partial curve].

As for `Cc1nc2cnc(N3CCN(C)CC3)nc2n(CCc2ccccc2)c1=O`, the AC50 was 12.6 µM [rising, partial curve].

Take `CCOC(=O)c1[nH]c2ccc(F)cc2c1NC(=O)C1=COCCO1`: the AC50 was 10 µM [rising, partial curve].

On to `CCc1nc(SCC(=O)Nc2ccccc2C(=O)OC)n[nH]1`, for which the AC50 is 0.00398 µM [falling, full curve].

Regarding `O=C(c1ccc(CNS(=O)(=O)c2ccccc2)cc1)N1CCN(c2ccccn2)CC1`, the AC50 is 0.01 µM [falling, full curve, poor fit].

Consider `CC(C)Cn1c(N)c(C(=O)NCCN2CCOCC2)c2nc3ccccc3nc21`, for which the AC50 was 10 µM [rising, partial curve].

Turning to `CC(=O)c1ccc2c3c(ccc(O)c13)CC2`, the AC50 was 0.1 µM [rising, full curve].

Take `N#Cc1c(N)n(C2CCCCC2)c2nc3ccccc3nc12`: the AC50 is 15.8 µM [falling, partial curve].

As to `CC1(C)CC[C@]2(C(=O)O)CC[C@]3(C)C(=CC[C@@H]4[C@@]5(C)CC[C@H](O)C(C)(C)[C@@H]5CC[C@@]43C)[C@@H]2C1`, the AC50 was 0.0158 µM [rising, full curve, poor fit].

One may read the AC50 as the concentration at which the activity in the assay is half-maximal.
